Source: the supplement of paper PMC10032668
This is one part of the list. The list holds hits alone, and they repeat only in part.

Amino acid sequences for entries named in this document (tags omitted).
GNB1, P62873, UniProt P62873, whole entry: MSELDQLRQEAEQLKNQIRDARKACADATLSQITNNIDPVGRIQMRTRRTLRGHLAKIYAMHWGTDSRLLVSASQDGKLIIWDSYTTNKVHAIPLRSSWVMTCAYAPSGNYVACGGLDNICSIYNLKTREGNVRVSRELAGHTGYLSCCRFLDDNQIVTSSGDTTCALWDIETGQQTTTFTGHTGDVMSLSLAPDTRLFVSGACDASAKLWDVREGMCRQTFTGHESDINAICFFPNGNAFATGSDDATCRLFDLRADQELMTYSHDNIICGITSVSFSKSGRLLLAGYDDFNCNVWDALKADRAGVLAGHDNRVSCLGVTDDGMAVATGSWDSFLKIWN
MTHFD1L, Q6UB35, UniProt Q6UB35, whole entry: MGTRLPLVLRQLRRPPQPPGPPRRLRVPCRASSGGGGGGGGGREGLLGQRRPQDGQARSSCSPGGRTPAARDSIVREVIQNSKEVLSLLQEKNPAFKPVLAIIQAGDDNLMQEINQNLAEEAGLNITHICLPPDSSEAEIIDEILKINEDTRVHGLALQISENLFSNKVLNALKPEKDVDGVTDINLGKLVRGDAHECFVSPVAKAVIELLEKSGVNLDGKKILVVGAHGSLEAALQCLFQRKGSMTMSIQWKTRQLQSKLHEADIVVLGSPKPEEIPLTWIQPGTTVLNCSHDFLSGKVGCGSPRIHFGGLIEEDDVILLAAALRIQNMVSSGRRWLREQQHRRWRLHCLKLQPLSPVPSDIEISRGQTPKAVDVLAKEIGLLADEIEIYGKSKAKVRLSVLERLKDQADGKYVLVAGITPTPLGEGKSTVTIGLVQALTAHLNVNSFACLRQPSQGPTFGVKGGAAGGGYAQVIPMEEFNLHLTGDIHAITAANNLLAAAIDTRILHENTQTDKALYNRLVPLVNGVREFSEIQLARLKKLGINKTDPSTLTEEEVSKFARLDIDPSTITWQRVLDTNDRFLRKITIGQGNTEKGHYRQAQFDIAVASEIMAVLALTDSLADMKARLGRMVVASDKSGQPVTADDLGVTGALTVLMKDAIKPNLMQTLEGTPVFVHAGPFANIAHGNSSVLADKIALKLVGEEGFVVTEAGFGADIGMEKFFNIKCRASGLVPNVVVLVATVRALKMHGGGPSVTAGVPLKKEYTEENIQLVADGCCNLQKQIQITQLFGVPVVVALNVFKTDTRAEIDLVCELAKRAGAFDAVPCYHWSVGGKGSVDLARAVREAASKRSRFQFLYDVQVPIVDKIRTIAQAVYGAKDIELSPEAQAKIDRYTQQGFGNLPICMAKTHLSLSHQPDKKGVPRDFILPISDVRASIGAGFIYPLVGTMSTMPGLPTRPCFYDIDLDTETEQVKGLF
NDUFS1, P28331, UniProt P28331, whole entry: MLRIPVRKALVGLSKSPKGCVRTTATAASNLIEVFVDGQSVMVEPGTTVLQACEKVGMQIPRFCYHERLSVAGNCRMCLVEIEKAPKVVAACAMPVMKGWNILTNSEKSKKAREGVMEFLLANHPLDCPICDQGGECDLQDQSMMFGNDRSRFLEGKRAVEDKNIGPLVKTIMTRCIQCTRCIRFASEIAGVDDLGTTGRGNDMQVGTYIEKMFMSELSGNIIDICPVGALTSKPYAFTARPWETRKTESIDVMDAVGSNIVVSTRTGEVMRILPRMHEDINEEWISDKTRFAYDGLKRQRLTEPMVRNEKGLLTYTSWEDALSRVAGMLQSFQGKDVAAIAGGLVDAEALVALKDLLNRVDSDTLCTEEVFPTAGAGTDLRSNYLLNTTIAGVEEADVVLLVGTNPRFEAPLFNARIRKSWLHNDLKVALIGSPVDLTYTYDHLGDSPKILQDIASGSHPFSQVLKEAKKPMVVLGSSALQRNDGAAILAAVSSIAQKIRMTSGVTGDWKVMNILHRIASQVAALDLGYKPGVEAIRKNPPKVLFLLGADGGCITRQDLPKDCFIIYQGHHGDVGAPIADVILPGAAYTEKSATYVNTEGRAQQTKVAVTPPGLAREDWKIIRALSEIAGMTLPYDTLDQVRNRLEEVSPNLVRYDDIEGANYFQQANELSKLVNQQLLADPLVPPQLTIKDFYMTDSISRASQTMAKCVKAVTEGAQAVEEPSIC
NDUFS5, O43920, UniProt O43920, whole entry: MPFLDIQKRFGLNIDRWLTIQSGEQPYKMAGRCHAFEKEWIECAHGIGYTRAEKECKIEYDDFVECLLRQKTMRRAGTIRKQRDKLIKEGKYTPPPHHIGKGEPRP
MPG, P29372, UniProt P29372, whole entry: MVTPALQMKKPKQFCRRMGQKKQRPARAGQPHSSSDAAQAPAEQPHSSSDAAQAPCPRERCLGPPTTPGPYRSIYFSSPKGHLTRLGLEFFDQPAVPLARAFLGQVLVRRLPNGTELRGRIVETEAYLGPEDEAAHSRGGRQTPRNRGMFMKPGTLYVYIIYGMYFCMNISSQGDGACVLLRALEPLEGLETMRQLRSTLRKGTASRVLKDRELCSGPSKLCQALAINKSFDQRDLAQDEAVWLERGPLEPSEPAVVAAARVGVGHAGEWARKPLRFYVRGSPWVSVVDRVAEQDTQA
PSMC6, P62333, UniProt P62333, whole entry: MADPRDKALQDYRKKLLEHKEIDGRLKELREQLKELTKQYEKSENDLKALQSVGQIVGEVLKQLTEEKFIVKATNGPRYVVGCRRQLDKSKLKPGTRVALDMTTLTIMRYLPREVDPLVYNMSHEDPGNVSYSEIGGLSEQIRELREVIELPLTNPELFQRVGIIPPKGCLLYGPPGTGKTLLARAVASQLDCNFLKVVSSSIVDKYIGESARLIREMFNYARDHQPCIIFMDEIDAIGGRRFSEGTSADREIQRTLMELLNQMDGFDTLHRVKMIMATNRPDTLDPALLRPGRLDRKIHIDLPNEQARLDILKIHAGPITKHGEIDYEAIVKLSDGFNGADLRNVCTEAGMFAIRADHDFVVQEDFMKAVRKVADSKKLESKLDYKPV
EIF1, P41567, UniProt P41567, whole entry: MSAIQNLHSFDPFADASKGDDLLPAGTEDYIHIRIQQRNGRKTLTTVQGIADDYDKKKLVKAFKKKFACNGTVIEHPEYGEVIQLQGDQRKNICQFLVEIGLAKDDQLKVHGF
HAX1, O00165, UniProt O00165, whole entry: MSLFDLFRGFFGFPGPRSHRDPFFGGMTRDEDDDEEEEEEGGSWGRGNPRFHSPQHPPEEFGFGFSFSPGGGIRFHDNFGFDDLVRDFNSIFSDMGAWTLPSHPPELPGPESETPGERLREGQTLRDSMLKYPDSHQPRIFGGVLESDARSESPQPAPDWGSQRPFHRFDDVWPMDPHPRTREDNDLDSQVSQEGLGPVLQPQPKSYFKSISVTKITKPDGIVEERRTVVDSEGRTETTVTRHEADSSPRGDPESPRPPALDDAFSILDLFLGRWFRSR
PPP2R5D, Q14738, UniProt Q14738, whole entry: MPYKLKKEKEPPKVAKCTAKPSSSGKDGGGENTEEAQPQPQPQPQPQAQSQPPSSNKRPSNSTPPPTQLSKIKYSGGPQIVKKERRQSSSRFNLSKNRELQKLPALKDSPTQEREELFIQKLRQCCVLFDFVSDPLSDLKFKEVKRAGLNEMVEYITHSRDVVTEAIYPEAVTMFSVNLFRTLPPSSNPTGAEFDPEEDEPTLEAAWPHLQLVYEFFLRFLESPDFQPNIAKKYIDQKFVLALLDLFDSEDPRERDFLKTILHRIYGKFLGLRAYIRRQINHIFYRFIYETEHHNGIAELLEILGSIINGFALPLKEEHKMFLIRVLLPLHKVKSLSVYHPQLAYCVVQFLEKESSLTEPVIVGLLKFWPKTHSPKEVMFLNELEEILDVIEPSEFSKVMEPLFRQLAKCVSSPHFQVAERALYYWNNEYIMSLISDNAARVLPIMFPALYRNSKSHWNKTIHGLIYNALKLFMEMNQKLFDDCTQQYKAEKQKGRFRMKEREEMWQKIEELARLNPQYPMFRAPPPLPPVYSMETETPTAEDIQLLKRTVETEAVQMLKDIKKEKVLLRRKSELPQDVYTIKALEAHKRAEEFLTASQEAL

Columns and labels:
Test in all cases: PRISMA enrichment of interactor (LFQ) in peptide spot vs all other peptide spots (log2 fold change); higher = stronger / more specific binding of the interactor to the peptide
[1] = target: ABT1, Q9ULW3
Experimental: (§1)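 PRISMA: 15-aa overlapping tiles (offset 8 aa) of 60 microproteins, plus SOS1/GLUT1 control peptides, were spot-synthesized on cellulose membranes in triplicate. Membranes were incubated with benzonase-treated HEK293T lysate, and bound proteins were identified by LC-MS/MS with LFQ. Enrichment is the log2 fold change of each protein in one spot versus all other spots. Only interactors passing the significance cutoff are listed.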

[2] = target: CDK11A, Q9UQ88
Experimental: as §1

[3] = target: CNN3, Q15417
Experimental: as §1

[4] = target: COPG2, Q9UBF2
Experimental: as §1

[5] = target: EEF1B2, P24534
Experimental: as §1

[6] = target: FAM136A, Q96C01
Experimental: as §1

[7] = target: GNB1, P62873
Experimental: as §1

[8] = target: LSM8, O95777
Experimental: as §1

[9] = target: MRPL39, Q9NYK5
Experimental: as §1

[10] = target: MRPL48, Q96GC5
Experimental: as §1

[11] = target: MRPL58, Q14197
Experimental: as §1

[12] = target: MTHFD1L, Q6UB35
Experimental: as §1

[13] = target: NDUFS1, P28331
Experimental: as §1

[14] = target: NDUFS5, O43920
Experimental: as §1

[15] = target: NEPRO, Q6NW34
Experimental: as §1

[16] = target: NOL6, Q9H6R4
Experimental: as §1

[17] = target: NUP214, P35658
Experimental: as §1

[18] = target: NVL, O15381
Experimental: as §1

[19] = target: PPHLN1, Q8NEY8
Experimental: as §1

[20] = target: RAB5C, P51148
Experimental: as §1

[21] = target: UTP14A, Q9BVJ6
Experimental: as §1

[22] = target: FASTKD5, Q7L8L6
Experimental: as §1

[23] = target: GRB2, P62993
Experimental: as §1

[24] = target: MPG, P29372
Experimental: as §1

[25] = target: MRPL13, Q9BYD1
Experimental: as §1

[26] = target: PSMC6, P62333
Experimental: as §1

[27] = target: RRP36, Q96EU6
Experimental: as §1

[28] = target: SF3A1, Q15459
Experimental: as §1

[29] = target: SSR1, P43307
Experimental: as §1

[30] = target: WDR46, O15213
Experimental: as §1

[31] = target: ACAA2, P42765
Experimental: as §1

[32] = target: ACTA1, P68133
Experimental: as §1

[33] = target: ARL6, Q9H0F7
Experimental: as §1

[34] = target: CNIH4, Q9P003
Experimental: as §1

[35] = target: COG3, Q96JB2
Experimental: as §1

[36] = target: EIF1, P41567
Experimental: as §1

[37] = target: FKBP8, Q14318
Experimental: as §1

[38] = target: HAX1, O00165
Experimental: as §1

[39] = target: IGHMBP2, P38935
Experimental: as §1

[40] = target: MRPL27, Q9P0M9
Experimental: as §1

[41] = target: MSI1, O43347
Experimental: as §1

[42] = target: PPP2R5D, Q14738
Experimental: as §1

[43] = target: DTNA, Q9Y4J8
Experimental: as §1

[44] = target: NOC4L, Q9BVI4
Experimental: as §1

[45] = target: RER1, O15258
Experimental: as §1

TGRRLITPMIMSTTA [PDZRN3-AS1]
PRISMA enrichment of interactor (log2) [1]: 4.67 | PRISMA enrichment of interactor (log2) [2]: 7.81 | PRISMA enrichment of interactor (log2) [3]: 5.4 | PRISMA enrichment of interactor (log2) [4]: 4.82 | PRISMA enrichment of interactor (log2) [5]: 5.51 | PRISMA enrichment of interactor (log2) [6]: 4.73 | PRISMA enrichment of interactor (log2) [7]: 5.03 | PRISMA enrichment of interactor (log2) [8]: 4.79 | PRISMA enrichment of interactor (log2) [9]: 4.93 | PRISMA enrichment of interactor (log2) [10]: 4.62 | PRISMA enrichment of interactor (log2) [11]: 5.32 | PRISMA enrichment of interactor (log2) [12]: 4.74 | PRISMA enrichment of interactor (log2) [13]: 7.17 | PRISMA enrichment of interactor (log2) [14]: 4.12 | PRISMA enrichment of interactor (log2) [15]: 6.79 | PRISMA enrichment of interactor (log2) [16]: 5.15 | PRISMA enrichment of interactor (log2) [17]: 4.85 | PRISMA enrichment of interactor (log2) [18]: 5.83 | PRISMA enrichment of interactor (log2) [19]: 4.9 | PRISMA enrichment of interactor (log2) [20]: 4.73 | PRISMA enrichment of interactor (log2) [21]: 5.09

RAAAYAFAIRRGVVR [TUG1]
PRISMA enrichment of interactor (log2) [1]: 4.28 | PRISMA enrichment of interactor (log2) [22]: 6.18 | PRISMA enrichment of interactor (log2) [23]: 5.05 | PRISMA enrichment of interactor (log2) [24]: 5.16 | PRISMA enrichment of interactor (log2) [25]: 8.82 | PRISMA enrichment of interactor (log2) [26]: 5.46 | PRISMA enrichment of interactor (log2) [27]: 5.21 | PRISMA enrichment of interactor (log2) [28]: 5.4 | PRISMA enrichment of interactor (log2) [29]: 7.51 | PRISMA enrichment of interactor (log2) [30]: 5.3

MASLDFFLWRLDSKI [RP3-332B22.1]
PRISMA enrichment of interactor (log2) [31]: 8.93 | PRISMA enrichment of interactor (log2) [32]: 5.51 | PRISMA enrichment of interactor (log2) [33]: 3.98 | PRISMA enrichment of interactor (log2) [34]: 4.74 | PRISMA enrichment of interactor (log2) [35]: 4.28 | PRISMA enrichment of interactor (log2) [36]: 4.93 | PRISMA enrichment of interactor (log2) [37]: 4.06 | PRISMA enrichment of interactor (log2) [38]: 4.48 | PRISMA enrichment of interactor (log2) [39]: 5.92 | PRISMA enrichment of interactor (log2) [40]: 7.43 | PRISMA enrichment of interactor (log2) [41]: 5.17 | PRISMA enrichment of interactor (log2) [42]: 5.04

FRLFHWLTFRLLTLL [CTD-2366F13.1]
PRISMA enrichment of interactor (log2) [31]: 5.76 | PRISMA enrichment of interactor (log2) [34]: 4.41 | PRISMA enrichment of interactor (log2) [43]: 6.21 | PRISMA enrichment of interactor (log2) [44]: 4.51 | PRISMA enrichment of interactor (log2) [45]: 4.53
